These are yes or no findings as the source states them, for the method shown. In cells and extracts the contact can be indirect. Some binding calls cover weakened binding; strength is not graded here.

Protein sequences, listed by entry. Tags and fused reporters are not part of them.
UniProt Q16539: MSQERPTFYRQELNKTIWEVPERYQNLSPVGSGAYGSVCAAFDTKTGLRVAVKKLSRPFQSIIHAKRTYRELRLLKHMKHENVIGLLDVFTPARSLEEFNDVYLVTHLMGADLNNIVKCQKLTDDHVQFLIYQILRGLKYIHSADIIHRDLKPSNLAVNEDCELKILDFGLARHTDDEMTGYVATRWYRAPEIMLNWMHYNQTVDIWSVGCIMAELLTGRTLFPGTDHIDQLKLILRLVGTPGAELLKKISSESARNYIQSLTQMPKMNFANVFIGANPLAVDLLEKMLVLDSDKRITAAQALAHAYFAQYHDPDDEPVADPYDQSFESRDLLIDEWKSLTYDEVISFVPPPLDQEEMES
UniProt P08151: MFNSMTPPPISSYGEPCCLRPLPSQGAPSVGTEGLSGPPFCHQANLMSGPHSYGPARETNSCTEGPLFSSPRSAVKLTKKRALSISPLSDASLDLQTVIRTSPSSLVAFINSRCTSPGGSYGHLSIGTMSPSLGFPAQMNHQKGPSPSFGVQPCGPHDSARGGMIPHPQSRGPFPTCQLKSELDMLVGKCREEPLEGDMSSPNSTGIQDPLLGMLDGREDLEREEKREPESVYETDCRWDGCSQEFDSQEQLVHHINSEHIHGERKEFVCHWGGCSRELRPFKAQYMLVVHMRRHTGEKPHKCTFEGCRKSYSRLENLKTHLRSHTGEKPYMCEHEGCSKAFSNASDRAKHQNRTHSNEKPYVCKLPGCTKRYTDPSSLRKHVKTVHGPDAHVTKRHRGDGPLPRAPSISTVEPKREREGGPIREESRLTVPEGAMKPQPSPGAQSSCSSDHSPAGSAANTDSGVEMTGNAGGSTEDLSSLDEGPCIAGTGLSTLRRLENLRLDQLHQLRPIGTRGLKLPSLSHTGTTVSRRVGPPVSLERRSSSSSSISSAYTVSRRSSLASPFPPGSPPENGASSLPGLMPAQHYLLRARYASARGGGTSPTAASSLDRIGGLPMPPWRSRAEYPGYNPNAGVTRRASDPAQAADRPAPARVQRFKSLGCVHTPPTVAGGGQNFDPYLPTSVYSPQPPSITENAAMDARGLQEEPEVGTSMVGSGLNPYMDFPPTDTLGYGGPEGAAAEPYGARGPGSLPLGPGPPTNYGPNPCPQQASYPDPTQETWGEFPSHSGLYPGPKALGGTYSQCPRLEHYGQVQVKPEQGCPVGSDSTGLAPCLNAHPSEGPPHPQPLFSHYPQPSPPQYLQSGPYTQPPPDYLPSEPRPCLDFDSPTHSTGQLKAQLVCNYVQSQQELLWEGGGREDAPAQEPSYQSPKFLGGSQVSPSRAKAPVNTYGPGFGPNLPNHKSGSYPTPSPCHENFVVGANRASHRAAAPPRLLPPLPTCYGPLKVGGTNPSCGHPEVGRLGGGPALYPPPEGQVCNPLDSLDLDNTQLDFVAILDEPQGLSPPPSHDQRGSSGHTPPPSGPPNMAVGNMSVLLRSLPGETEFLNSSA

This test deals with Flag-MAPK14 (p38α) (UniProt Q16539). The test can be described thus: co-IP; whole cell lysates of HEK293T cells transiently expressing Flag-MAPK14 or HA-GLI1; precipitated with a Flag or HA antibody, SDS-PAGE and immunoblotting of the endogenous partner. (In general: Immunoblotting shows a protein as a band on a membrane.)

On to “endogenous GLI1 (glioma-associated oncogene 1) (from UniProt P08151 1-1106)”, for which the binding result is “binds”.

For the origin of these results see publication PMC10837140.
